Reference: PubChem BioAssay AID743121 (NCATS, 2013)
This is an unselected part of about 26,000 deposited reagents. Over the whole deposit, 167 (0.63%) got an active call. 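Calls are per gene from RSA p-values that are not deposited; an individual active-marked siRNA can sensitise only weakly.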 A number with no mark means an inactive call. Reagents against one gene are numbered here. Not all columns of the deposit are shown.

- Assay: 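Knock-downs that sensitise breast cancer cells to camptothecin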 (primary screen)
- Cells: MDA-MB-231 cells, a human breast cancer line
- Reagents: single siRNA against human genes, 20 nM siRNA (0.8 pmol per well)
- Duration: 120 h (drug added 48 h after transfection, read 72 h later)
- Conditions: camptothecin 20 nM (about EC30) for 72 h; vehicle 0.1% DMSO in parallel plates
- Measurement: 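Cell viability by ATP luminescence (CellTiter-Glo) as % of non-targeting siRNA wells, and the log2 ratio of viability without drug over viability with camptothecin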
- Scale: log2 vehicle/camptothecin viability: higher = stronger sensitisation to camptothecin
- Call rule: 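Active genes have an RSA gene-level p-value below 0.001, computed from the ratios of their separate siRNAs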

| target | siRNA no. | log2 vehicle/camptothecin viability |
| --- | --- | --- |
| USP4 | 1 | -0.0457 |
| USP4 | 2 | -0.472 |
| USP4 | 3 | -0.0659 |
| USP4 | 4 | -0.156 |
| MAPK11 | 1 | -0.399 |
| MAPK11 | 2 | -0.776 |
| MAPK11 | 3 | -0.358 |
| MAPK11 | 4 | -0.359 |
| RB1 | 1 | 0.447 |
| RB1 | 2 | -0.0343 |
| RB1 | 3 | 0.0562 |
| RB1 | 4 | -0.221 |
| THBS1 | 1 | -0.184 |
| THBS1 | 2 | -0.51 |
| THBS1 | 3 | -0.0913 |
| THBS1 | 4 | -0.0535 |
| SLC6A8 | 1 | 0.707 |
| SLC6A8 | 2 | -0.409 |
| SLC6A8 | 3 | 0.0566 |
| CYP7A1 | 1 | 0.0284 |
| CYP7A1 | 2 | -0.245 |
| CYP7A1 | 3 | -0.302 |
| CYP7A1 | 4 | -0.342 |
| PROC | 1 | -0.313 |
| PROC | 2 | 0.0953 |
| PROC | 3 | -0.087 |
| PDP2 | 1 | 0.312 |
| PDP2 | 2 | 0.0521 |
| PDP2 | 3 | -0.47 |
| PDP2 | 4 | -0.0551 |

Records above whose gene name begins with C or c (4):
| target | siRNA no. | log2 vehicle/camptothecin viability |
| --- | --- | --- |
| CYP7A1 | 1 | 0.0284 |
| CYP7A1 | 2 | -0.245 |
| CYP7A1 | 3 | -0.302 |
| CYP7A1 | 4 | -0.342 |
